The target in assay [1] is human kindlin2-F0 (1–105) (human) (UniProt Q96AC1). Nature of the assay: NMR titration; 2D HSQC of 50 μM 15N-labeled talin-F0 (wild type or DM) or kindlin2-F0 without and with 125 μM unlabeled Rap1b; 25 °C; 20 mM NaH2PO4/Na2HPO4 pH 6.6, 50 mM NaCl, 5 mM MgCl2, 2 mM DTT; both purified.
Assay [2] addresses mouse talin-F0 (1–86) (mouse) (UniProt P26039). The description is as above.
For the next assay, the target named is GST-talin-H (mouse) (UniProt P26039). Nature of the assay: pull-down; GST-talin-H on glutathione-Sepharose 4B; prey Rap1b free or anchored to LUVs; 4 °C, 25 mM Tris-HCl pH 7.5, 150 mM NaCl, 5 mM MgCl2; Coomassie and western blot; both purified.
Assay [3] has as its target GFP-Rap1b (G12V), loaded with GMP-PNP (human, UniProt P61224 1-184, G12V). Nature of the assay: MST; 100 nM GFP-Rap1b (G12V) with serial dilutions of the partner; 50 mM Tris-HCl pH 7.5, 100 mM NaCl, 5 mM MgCl2, 2 mM DTT, 0.05% Tween 20; RT; both purified.

Chains of the proteins cited; added tags and fusions are not shown. Lines headed by an entry give the natural chain unless they say otherwise; changes in a name come on top. Residues count along the entry.
UniProt Q96AC1, residues 1-105: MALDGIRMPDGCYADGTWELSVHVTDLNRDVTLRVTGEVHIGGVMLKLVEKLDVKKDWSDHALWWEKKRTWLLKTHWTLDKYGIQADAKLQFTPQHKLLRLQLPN
UniProt P61224: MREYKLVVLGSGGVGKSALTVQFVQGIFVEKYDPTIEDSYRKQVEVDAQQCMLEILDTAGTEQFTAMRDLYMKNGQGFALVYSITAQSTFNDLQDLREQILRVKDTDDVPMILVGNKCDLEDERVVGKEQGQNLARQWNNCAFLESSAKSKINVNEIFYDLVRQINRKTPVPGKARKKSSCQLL

No constants are given. Whether binding was seen depends on the method and setting. Some entries that bind do so weakly or less than the wild type.

Consider “Rap1b (G12V), loaded with GMP-PNP (active form) (from UniProt P61224 1-184)”, for which the binding entry in assay [1] is on record as “no binding (tested: 125 μM)”; in assay [2], “binds weakly”.

As for “Rap1b_TM2 (G12V, C51S, C118S, C141S), loaded with GMP-PNP, free in solution (from UniProt P61224 1-184)”, the figures for the binding result (with GST-talin-H (mouse); in assay [2]) were “binds weakly” and “binds”, respectively.

Regarding “wild-type Rap1b, loaded with GDP-β-S (inactive form) (from UniProt P61224 1-184)”, the binding result in assay [2] is listed as “binds weakly”.

B1: mouse talin-F0 (1–86) (domain or fragment, UniProt P26039 1-86, looked up)
chain: MVALSLKISIGNVVKTMQFEPSTMVYDACRMIRERIPEALAGPPNDFGLFLSDDDPKKGIWLEAGKALDYYMLRNGDTMEYRKKQR
notes: talin (talin-1), mouse, F0 domain, residues 1-86; Isotope labelled or unlabelled as the NMR sample needed; also called F0 domain of talin
Regarding B1, in assay [3], the binding result is given as “binds weakly”.

B2: mouse talin-H (1–429) (domain or fragment, UniProt P26039 1-429, looked up)
chain: MVALSLKISIGNVVKTMQFEPSTMVYDACRMIRERIPEALAGPPNDFGLFLSDDDPKKGIWLEAGKALDYYMLRNGDTMEYRKKQRPLKIRMLDGTVKTIMVDDSKTVTDMLMTICARIGITNHDEYSLVRELMEEKKDEGTGTLRKDKTLLRDEKKMEKLKQKLHTDDELNWLDHGRTLREQGVEEHETLLLRRKFFYSDQNVDSRDPVQLNLLYVQARDDILNGSHPVSFDKACEFAGFQCQIQFGPHNEQKHKAGFLDLKDFLPKEYVKQKGERKIFQAHKNCGQMSEIEAKVRYVKLARSLKTYGVSFFLVKEKMKGKNKLVPRLLGITKECVMRVDEKTKEVIQEWSLTNIKRWAASPKSFTLDFGDYQDGYYSVQTTEGEQIAQLIAGYIDIILKKKKSKDHFGLEGDEESTMLEDSVSPKKS
notes: talin (talin-1), mouse, head domain, residues 1-429; Talin-H was cloned into pET28t and into pGST-1; also called talin head domain
Consider B2, for which, in assay [3], the binding result was “binds weakly”.

Source of the values: paper PMC5701058, “Structure of Rap1b bound to talin reveals a pathway for triggering integrin activation” (Nature Communications, 2017).
